Laboratory results from patent publication US20160271230A1 (UNIVERSITY HEALTH NETWORK, published 2016).
No constants are given. Whether binding was seen depends on the method and setting. Binding seen in cells or lysates may run through a third protein. Some results given as binding are weak or reduced against the parent protein; the word gives no strength. Sequences can lack the tags named with a protein.

T1: His-tagged 6FNIII-domain of Neogenin (Gallus gallus, UniProt Q90610 429-1036)
T1 construct: also called His-6FNIII; His-FNIII; not shown: His tag
T1 sequence: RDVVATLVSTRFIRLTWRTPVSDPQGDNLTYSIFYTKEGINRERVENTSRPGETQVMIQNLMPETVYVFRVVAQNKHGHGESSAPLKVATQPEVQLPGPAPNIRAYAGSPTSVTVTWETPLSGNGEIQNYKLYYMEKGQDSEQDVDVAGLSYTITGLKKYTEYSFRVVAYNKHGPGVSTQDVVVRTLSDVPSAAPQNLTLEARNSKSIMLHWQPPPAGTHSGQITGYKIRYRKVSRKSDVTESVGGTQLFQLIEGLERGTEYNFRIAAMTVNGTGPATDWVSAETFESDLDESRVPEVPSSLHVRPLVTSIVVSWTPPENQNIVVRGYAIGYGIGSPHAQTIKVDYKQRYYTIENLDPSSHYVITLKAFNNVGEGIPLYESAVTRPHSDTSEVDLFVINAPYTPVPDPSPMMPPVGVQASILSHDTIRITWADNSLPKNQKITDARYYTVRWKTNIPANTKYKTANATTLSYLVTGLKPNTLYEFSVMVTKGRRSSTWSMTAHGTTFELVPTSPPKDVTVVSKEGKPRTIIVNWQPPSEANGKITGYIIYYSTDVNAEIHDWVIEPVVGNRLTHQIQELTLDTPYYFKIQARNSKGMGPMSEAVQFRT

T2: His-tagged 4Ig-domain of Neogenin (Gallus gallus, UniProt Q90610 1-383)
T2 construct: Secreted from transfected cells, purified on Ni-NTA; also called His-4Ig; Neogenin-4Ig; not shown: 6-His tag at the N-terminus; myc and 6-His tags of the pSectag 2B vector at the C-terminus
T2 sequence: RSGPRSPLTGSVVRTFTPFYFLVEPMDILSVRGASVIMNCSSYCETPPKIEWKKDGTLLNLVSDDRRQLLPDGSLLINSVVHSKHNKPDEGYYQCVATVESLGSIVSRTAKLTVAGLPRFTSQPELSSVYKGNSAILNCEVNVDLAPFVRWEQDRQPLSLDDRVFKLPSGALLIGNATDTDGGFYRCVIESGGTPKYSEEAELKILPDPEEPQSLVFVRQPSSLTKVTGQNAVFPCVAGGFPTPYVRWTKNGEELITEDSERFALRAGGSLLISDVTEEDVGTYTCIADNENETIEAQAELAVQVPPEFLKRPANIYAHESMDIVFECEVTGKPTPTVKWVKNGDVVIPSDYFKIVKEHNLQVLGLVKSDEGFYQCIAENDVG

B1: N-inh peptide (amino acids 77-113 of RGMa), His-tagged (peptide)
peptide: GDLAYHSAVHGIDDLMVQHNCSKDGPTSQPRLRTLPP
notes: not shown: 6-His tag at the N-terminus; myc tag and 6-His tag at the C-terminus
B2: N-Raft peptide (amino acids 28-73 of RGMa), His-tagged (peptide)
peptide: SPCKILKCNSEFWAATSGSHHLGAEETPEFCTALRAYAHCTRRTAR
notes: also called N-RGMa^28-73; N-RGMa28-73; not shown: 6-His tag at the N-terminus

Tests used:
[1] = target: T1, His-tagged 6FNIII-domain of Neogenin; assay: pull-down with peptide-coated beads (FIG. 2B)
[2] = target: T1, His-tagged 6FNIII-domain of Neogenin; assay: pull-down with peptide-coated beads, anti-His Western blot (FIG. 2B)
[3] = target: T2, His-tagged 4Ig-domain of Neogenin; assay: pull-down with peptide-coated beads (FIG. 2B)
[4] = target: T2, His-tagged 4Ig-domain of Neogenin; assay: pull-down with peptide-coated beads, anti-His Western blot (FIG. 2B)

Binder | binding [1] | binding [2] | binding [3] | binding [4]
B1 | binds | binds |  | 
B2 |  |  | binds | binds
